Measurements reported in PubChem BioAssay AID686937 (Drosophila RNAi Screening Center, 2013)
Assay: 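Knock-downs that reduce output of a secreted reporter enzyme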 (primary screen). Cell system: Drosophila S2 cells expressing secreted horseradish peroxidase. Reagent: long dsRNA against Drosophila genes. Duration: about 5.5 days (5 days dsRNA, then 12 h reporter induction). Treatment: reporter expression induced after 5 days of dsRNA, read 12 h later; inducer not stated. Detection: 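Chemiluminescent measurement of peroxidase in the medium 12 h after reporter induction, following 5 days of dsRNA, given as a z-score per plate; higher means more secretion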. Reading the numbers: z-score: higher = more reporter secreted into medium.
In all, the deposit lists about 23,000 reagents; below is a random part of those with a known target gene and a result. 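Reduced-secretion tags in replicate 1 do not always agree with the z-scores; no criterion for assigning the tags was given.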 The numbers tell different reagents against one gene apart. A plus sign joins genes that one reagent is predicted to hit. The record does not give: the amount of reagent.

no.	gene knocked down	reagent	z-score, replicate 1	z-score, replicate 2	z-score, replicate 3	z-score, replicate 4	phenotype, replicate 1
1	CG1840 (GeneID 32150)	1	-0.06	-0.03			
2	CG14022 (GeneID 33763)	1	0.04	0.08			
3	CG30026 (GeneID 246399)	1	0.99	0.47			
4	CG13299 (GeneID 38724)	1	0.37	0.35			
5	CG15536 (GeneID 43610)	1	0.47	0.44	0.3	0.29	
6	CG15536 (GeneID 43610)	2	-0.14	0			
7	PGRP-SD (GeneID 38858)	1	0.19	0.35			
8	Tbcc (GeneID 319048)	1	0.15	0.2			
9	CG12483 (GeneID 50161)	1	0.17	0.34			
10	Ir54a + sub	1	0.38	0.32			
11	vir (GeneID 47869)	1	0.5	0.11			
12	RpL10 (GeneID 43864)	1	-3.8	-2.5			reduced secretion
13	inv (GeneID 36239)	1	0.56	0.44			
14	ND-PDSW (GeneID 44228)	1	0.01	-0.22			
15	CG11630 (GeneID 35429)	1	0.02	0.21			
16	Pde6 (GeneID 41760)	1	0.27	0.34			
17	Pde6 (GeneID 41760)	2	0.09	0.38			
18	Pde6 (GeneID 41760)	3	0.22	0.33			
19	CG31998 (GeneID 43774)	1	0.25	0.36			
20	CG31998 (GeneID 43774)	2	0.3	0.39			
21	CG32488 (GeneID 326220)	1	0.75	0.26			
22	CG32488 (GeneID 326220)	2	0.79	1.01			
23	CG3556 (GeneID 31380)	1	0.25	0.12			
24	wal (GeneID 36252)	1	0.42	-0.02			
25	Tlk (GeneID 318206)	1	0.14	-0.58			
26	Tlk (GeneID 318206)	2	0.3	-0.31			
27	Tlk (GeneID 318206)	3	-2.18	0.3			reduced secretion
28	Tlk (GeneID 318206)	4	2.87	1.74			
29	Tlk (GeneID 318206)	5	-0.94	0.02			
30	Tlk (GeneID 318206)	6	-0.13	-0.21			
31	CG8773 (GeneID 41634)	1	0.03	0.38			
32	CG18477 + CG31780	1	0.08	0.22			
33	mat (GeneID 38107)	1	0.6	0.36			
34	mat (GeneID 38107)	2	-0.15	0.39			
35	Myo95E (GeneID 2768680)	1	0.49	0.25			
36	CG13575 (GeneID 37883)	1	0.07	0.28			
37	CG13575 (GeneID 37883)	2	-0.58	-0.73			
38	CG43277 (GeneID 12798350)	1	0.54	-0.94			
39	sad (GeneID 44858)	1	0.28	0.73			
40	CR15821 (GeneID 3771832)	1	0.38	0.31			
41	GABPI (GeneID 33516)	1	0.31	0.36			
42	CG10147 (GeneID 38733)	1	0.19	0.14			
43	CG42337 (GeneID 40335)	1	0.18	-0.02			
44	CG42337 (GeneID 40335)	2	-1.97	-1.46			reduced secretion
45	GstO3 (GeneID 38972)	1	0.07	0.31			
46	CG13492 (GeneID 37487)	1	0.24	0.35			
47	Hesr (GeneID 32800)	1	0.27	0.27			
48	CG7991 (GeneID 38214)	1	0.51	0.31			
49	eEF2 (GeneID 35422)	1	-3.31	-4.59			reduced secretion
50	pros (GeneID 41363)	1	0.47	0.52			
51	pros (GeneID 41363)	2	0.15	0.59			
52	pros (GeneID 41363)	3	0.22	-0.06			
53	CG13716 (GeneID 38567)	1	-0.85	0.39	0.29	-0.61	reduced secretion
54	CG13716 (GeneID 38567)	2	-2.14	-1.47			reduced secretion
55	CG6659 (GeneID 32854)	1	0.04	0.31			
56	CG31933 (GeneID 326176)	1	0.23	0.26			
57	SPH93 (GeneID 35049)	1	0.43	0.16			
58	CG10651 (GeneID 35303)	1	0.19	-0.02			
59	alpha-Est9 (GeneID 40897)	1	0.1	0.4			
60	snk (GeneID 41607)	1	0.08	0.31			
61	CtsK1 (GeneID 39547)	1	0.44	0.1			
62	olf413 (GeneID 40453)	1	0.54	-0.2			
63	olf413 (GeneID 40453)	2	0.42	0.19	0.04	0.41	
64	olf413 (GeneID 40453)	3	0.18	0.53			
65	olf413 (GeneID 40453)	4	0.17	0.44	-0.14	0.28	
66	kmr (GeneID 5740131)	1	0.39	0.46			
67	kmr (GeneID 5740131)	2	0.27	0.29			
68	kmr (GeneID 5740131)	3	0.51	0.36			
69	kmr (GeneID 5740131)	4	-0.17	-0.09			
70	CG18636 (GeneID 2768923)	1	0.25	-0.15			
71	alpha-Est4 (GeneID 40906)	1	0.16	0.25			
72	Obp57a (GeneID 246670)	1	0.5	0.3			
73	Pgant5 (GeneID 326151)	1	0.02	0.34			
74	ovm + CG31975	1	0.7	0.52			
75	Prx6c (GeneID 36098)	1	0.11	0.16			
76	CG31988 (GeneID 326182)	1	-0.09	0.16			
77	kappaTry (GeneID 36215)	1	0.29	0.26			
78	PAN2 (GeneID 35893)	1	0.34	0.46			
79	par-1 (GeneID 2768852)	1	-2.98	-3.07			reduced secretion
80	par-1 (GeneID 2768852)	2	0.23	0.33			
81	par-1 (GeneID 2768852)	3	0.06	0.35			
82	par-1 (GeneID 2768852)	4	0.55	0.39			
83	par-1 (GeneID 2768852)	5	0.31	0.2			
84	CG33252 (GeneID 2768903)	1	0.51	0.51			
85	escl (GeneID 34611)	1	0.09	0.35			
86	CG17105 (GeneID 34466)	1	0	0.2			
87	Cyp311a1 (GeneID 32170)	1	0.2	0.42			
88	spri (GeneID 31987)	1	-0.42	-0.68			
89	spri (GeneID 31987)	2	0.33	0.55			
90	spri (GeneID 31987)	3	0.51	0.61			
91	spri (GeneID 31987)	4	0.41	0.83			
92	spri (GeneID 31987)	5	0.49	0.38			
93	spri (GeneID 31987)	6	0.45	0.37			
94	spri (GeneID 31987)	7	-0.95	-0.94			reduced secretion
95	TwdlY (GeneID 318093)	1	-0.72	-0.8	0.27	0.72	
96	gukh (GeneID 53563)	1	0.35	0.61			
97	gukh (GeneID 53563)	2	0.24	0.25			
98	gukh (GeneID 53563)	3	0.31	0.27			
99	Jhbp11 (GeneID 43263)	1	0.39	0.21			
100	aru (GeneID 33268)	1	0.25	0.22			
101	aru (GeneID 33268)	2	-0.99	-0.38			
102	CG32373 (GeneID 318000)	1	0.24	0.47			
103	CG6415 (GeneID 34474)	1	0.27	0.28			
104	Alr (GeneID 32991)	1	0.33	0.49			

16 of these entries, set out differently.
gene knocked down	reagent	z-score, replicate 1	z-score, replicate 2	z-score, replicate 3	z-score, replicate 4	phenotype, replicate 1
CG18636 (GeneID 2768923)	1	0.25	-0.15			
alpha-Est4 (GeneID 40906)	1	0.16	0.25			
Obp57a (GeneID 246670)	1	0.5	0.3			
Pgant5 (GeneID 326151)	1	0.02	0.34			
ovm + CG31975	1	0.7	0.52			
Prx6c (GeneID 36098)	1	0.11	0.16			
CG31988 (GeneID 326182)	1	-0.09	0.16			
kappaTry (GeneID 36215)	1	0.29	0.26			
PAN2 (GeneID 35893)	1	0.34	0.46			
par-1 (GeneID 2768852)	1	-2.98	-3.07			reduced secretion
par-1 (GeneID 2768852)	2	0.23	0.33			
par-1 (GeneID 2768852)	3	0.06	0.35			
par-1 (GeneID 2768852)	4	0.55	0.39			
par-1 (GeneID 2768852)	5	0.31	0.2			
CG33252 (GeneID 2768903)	1	0.51	0.51			
escl (GeneID 34611)	1	0.09	0.35			
